These results are taken from patent US20050013808A1, “Nitroreductase enzymes” (priority 2001, published 2005).

The data set relates to HeLa cells. The data set can be described thus: Western blot analysis of NTR expression in infected cells. Conditions: western blot of whole cell extracts. The class given is cell-based, human.

B1: F124N (protein)
chain: MDIISVALKRHSTKAFDASKKLTPEQAEQIKTLLQYSPSSTNSQPWHFIVASTEEGKARVAKSAAGNYVFNERKMLDASHVVVFCAKTAMDDVWLKLVVDQEDADGRFATPEAKAANDKGRKFNADMHRKDLHDDAEWMAKQVYLNVGNFLLGVAALGLDAVPIEGFDAAILDAEFGLKEKGYTSLVVVPVGHHSVEDFNATLPKSRLPQNITLTEV
Take B1: the “level of NTR expression compared with WT” value was “lower than in WT NTR-expressing cells”.

B2: N71S F124K: NTR double mutant, asparagine 71 to serine combined with phenylalanine 124 to lysine (protein)
chain: MDIISVALKRHSTKAFDASKKLTPEQAEQIKTLLQYSPSSTNSQPWHFIVASTEEGKARVAKSAAGNYVFSERKMLDASHVVVFCAKTAMDDVWLKLVVDQEDADGRFATPEAKAANDKGRKFKADMHRKDLHDDAEWMAKQVYLNVGNFLLGVAALGLDAVPIEGFDAAILDAEFGLKEKGYTSLVVVPVGHHSVEDFNATLPKSRLPQNITLTEV
B2: the “level of NTR expression compared with WT” value is “more similar to that of WT”.
